Record: PubChem BioAssay AID1259282 (Sanger Institute, 2017)
This is an unselected part of 794 reagents. 11 of all reagents (1.4%) were called active. 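Calls flag knock-downs that lower viability without drug; drug synergy appears only in the synergy scores; exposure time not stated.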 No viability above 1 is reported: the scale is capped. The record does not give: the amount of reagent, the time to read-out.

Purpose: 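siRNA screen across the kinome seeking drug combinations lethal to colorectal cancer cells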 (primary screen)
System: DIFI human colorectal cancer cell line
Reagents: siRNA pool against human genes
Treatment: anchor drug at a mild dose (BYL719 1 µM, cetuximab 5 µg/ml, trametinib 10 nM) or DMSO vehicle; exposure time not given
Measured: 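Robust z-score and replicate-mean viability versus non-targeting pool without drug, plus a synergy score for each low-dose anchor drug (BYL719, cetuximab, trametinib)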
Scale: robust z-score, knock-down alone: higher = more viable cells than typical knock-down; viability, knock-down alone: higher = more viable cells; synergy score with trametinib and synergy score with cetuximab and synergy score with BYL719: higher = stronger combined killing with drug
Hit rule: 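a knock-down is called essential if its DMSO robust z-score is under -3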
Meaning of the calls: active = essential (knock-down alone, z below -3); inactive = not essential

no.	Gene	robust z-score, knock-down alone	viability, knock-down alone (fraction of control)	synergy score with trametinib	synergy score with cetuximab	synergy score with BYL719	Outcome
1	MASTL (microtubule associated serine/threonine kinase like)	0.262	0.934	0.0244	-0.0833	-0.079	inactive
2	JAK3 (Janus kinase 3)	0.715	1	0.0281	0.109	-0.18	inactive
3	CDK4 (cyclin dependent kinase 4)	-0.909	0.764	0.128	-0.0711	0.00682	inactive
4	CERK (ceramide kinase)	0.715	1	-0.079	0.0756	0.00467	inactive
5	PKN3 (protein kinase N3)	0.715	1	0.0816	-0.0113	-0.192	inactive
6	CILK1 (ciliogenesis associated kinase 1)	0.318	0.942	-0.0506	-0.0452	-0.151	inactive
7	TLK2 (tousled like kinase 2)	0.529	0.973	-0.273	-0.279	-0.262	inactive
8	NEK6 (NIMA related kinase 6)	0.715	1	-0.0572	-0.0902	-0.0735	inactive
9	AAK1 (AP2 associated kinase 1)	0.602	0.984	0.163	0.0119	-0.0442	inactive
10	PRKAG3 (protein kinase AMP-activated non-catalytic subunit gamma 3)	-1.94	0.614	-0.00837	-0.116	-0.181	inactive
11	ULK2 (unc-51 like autophagy activating kinase 2)	-0.556	0.815	0.193	0.0634	-0.0368	inactive
12	SRMS	0.177	0.922	0.211	0.104	0.215	inactive
13	STK24 (serine/threonine kinase 24)	0.715	1	-0.0822	0.0763	-0.241	inactive
14	DNMT3A (DNA methyltransferase 3 alpha)	0.715	1	0.205	0.147	0.0338	inactive
15	NEK11 (NIMA related kinase 11)	-1.16	0.727	-0.0752	0.0204	-0.077	inactive
16	DAPK1 (death associated protein kinase 1)	-0.0759	0.885	0.197	0.00662	0.1	inactive
17	CSNK1E (casein kinase 1 epsilon)	0.0635	0.905	0.0245	0.0158	-0.0863	inactive
18	CDC73 (cell division cycle 73)	-0.514	0.822	-0.0715	-0.16	-0.265	inactive
19	PDK3 (pyruvate dehydrogenase kinase 3)	0.715	1	0.0539	0.0316	-0.189	inactive
20	MOK (MOK protein kinase)	0.282	0.937	0.219	0.0532	-0.179	inactive
21	CAMK4 (calcium/calmodulin dependent protein kinase IV)	0.715	1	0.0396	0.0338	-0.112	inactive
22	GOLGA5 (golgin A5)	0.715	1	-0.137	-0.000763	-0.182	inactive
23	AXL (AXL receptor tyrosine kinase)	0.715	1	0.0747	-0.0393	-0.316	inactive
24	PRKG1 (protein kinase cGMP-dependent 1)	-0.713	0.793	0.0456	-0.0719	0.0581	inactive
25	TNNI3K (TNNI3 interacting kinase)	0.715	1	-0.149	-0.0442	-0.336	inactive
26	EPHA6 (EPH receptor A6)	-0.675	0.798	0.00979	-0.0946	-0.00372	inactive
27	EPHB4 (EPH receptor B4)	0.659	0.992	0.108	-0.00942	-0.226	inactive
28	NEK5 (NIMA related kinase 5)	0.715	1	0.0658	0.0147	-0.16	inactive
29	PDXK (pyridoxal kinase)	0.715	1	-0.305	-0.173	-0.142	inactive
30	TAB1 (TGF-beta activated kinase 1 (MAP3K7) binding protein 1)	0.23	0.93	-0.0562	-0.0636	-0.174	inactive
31	PFKFB2 (6-phosphofructo-2-kinase/fructose-2,6-biphosphatase 2)	0.715	1	0.129	0.0313	-0.107	inactive
32	PAK2 (p21 (RAC1) activated kinase 2)	-0.793	0.781	0.0498	-0.0302	-0.0841	inactive
33	PHKA2 (phosphorylase kinase regulatory subunit alpha 2)	-0.97	0.755	0.0656	0.00673	-0.272	inactive
34	YES1 (YES proto-oncogene 1, Src family tyrosine kinase)	0.715	1	-0.031	0.068	-0.0544	inactive
35	KCNH2 (potassium voltage-gated channel subfamily H member 2)	0.715	1	0.258	0.135	0.12	inactive
36	PDGFRB (platelet derived growth factor receptor beta)	-2.17	0.581	-0.0632	-0.0457	-0.0677	inactive
37	TESK1 (testis associated actin remodelling kinase 1)	0.715	1	0.172	-0.0181	-0.0851	inactive

Next part, starting with the last 6 of the part before.
no.	Gene	robust z-score, knock-down alone	viability, knock-down alone (fraction of control)	synergy score with trametinib	synergy score with cetuximab	synergy score with BYL719	Outcome
32	PAK2 (p21 (RAC1) activated kinase 2)	-0.793	0.781	0.0498	-0.0302	-0.0841	inactive
33	PHKA2 (phosphorylase kinase regulatory subunit alpha 2)	-0.97	0.755	0.0656	0.00673	-0.272	inactive
34	YES1 (YES proto-oncogene 1, Src family tyrosine kinase)	0.715	1	-0.031	0.068	-0.0544	inactive
35	KCNH2 (potassium voltage-gated channel subfamily H member 2)	0.715	1	0.258	0.135	0.12	inactive
36	PDGFRB (platelet derived growth factor receptor beta)	-2.17	0.581	-0.0632	-0.0457	-0.0677	inactive
37	TESK1 (testis associated actin remodelling kinase 1)	0.715	1	0.172	-0.0181	-0.0851	inactive
38	EFNB3 (ephrin B3)	-2.14	0.585	-0.00259	-0.0349	0.0126	inactive
39	ELF3 (E74 like ETS transcription factor 3)	-0.993	0.752	0.0246	-0.0086	-0.261	inactive
40	TGFBR2 (transforming growth factor beta receptor 2)	-1.68	0.652	0.089	0.0508	-0.139	inactive
41	WIPF1 (WAS/WASL interacting protein family member 1)	-4.08	0.303	0.00982	-0.0483	-0.0881	active
42	PMVK (phosphomevalonate kinase)	0.715	1	-0.00957	-0.0236	-0.0568	inactive
43	STK38 (serine/threonine kinase 38)	-2.11	0.59	-0.013	-0.0713	-0.0734	inactive
44	RBM10 (RNA binding motif protein 10)	-2.02	0.602	0.0441	0.028	0.0149	inactive
45	NTN4 (netrin 4)	-0.7	0.795	0.0141	-0.0632	-0.0274	inactive
46	RPS6KA6 (ribosomal protein S6 kinase A6)	-0.14	0.876	-0.0566	0.0194	-0.0864	inactive
47	EPHB2 (EPH receptor B2)	-0.899	0.766	0.0691	-0.0516	-0.0421	inactive
48	PIP4K2C (phosphatidylinositol-5-phosphate 4-kinase type 2 gamma)	0.715	1	-0.174	0.0294	-0.139	inactive
49	AGK (acylglycerol kinase)	-0.313	0.851	0.0448	-0.0823	-0.126	inactive
50	MARK3 (microtubule affinity regulating kinase 3)	-1.27	0.712	0.145	0.0679	-0.0402	inactive
51	ZAP70 (zeta chain of T cell receptor associated protein kinase 70)	-0.543	0.817	0.0662	0.0791	-0.208	inactive
52	CLK1 (CDC like kinase 1)	0.715	1	0.00804	-0.121	-0.362	inactive
53	TYRO3 (TYRO3 protein tyrosine kinase)	0.056	0.904	-0.0348	-0.068	-0.0481	inactive
54	RPS6KA3 (ribosomal protein S6 kinase A3)	0.715	1	0.0184	-0.151	-0.0348	inactive
55	LMTK3 (lemur tail kinase 3)	-2.45	0.54	-0.00506	-0.0434	-0.0648	inactive
56	STK36 (serine/threonine kinase 36)	0.715	1	0.202	-0.00495	-0.0788	inactive
57	CRKL (CRK like proto-oncogene, adaptor protein)	0.715	1	-0.204	-0.0155	-0.0927	inactive
58	LIMK1 (LIM domain kinase 1)	0.715	1	0.0733	0.0606	-0.278	inactive
59	BCOR (BCL6 corepressor)	0.715	1	0.00947	0.062	-0.0777	inactive
60	MYLK4 (myosin light chain kinase family member 4)	-0.593	0.81	0.0242	-0.0952	-0.0986	inactive
61	EPHA5 (EPH receptor A5)	0.715	1	-0.141	-0.0178	-0.247	inactive
62	MAP3K11 (mitogen-activated protein kinase kinase kinase 11)	-0.672	0.799	0.117	-0.0367	0.0296	inactive
63	MAPKAPK5 (MAPK activated protein kinase 5)	0.715	1	0.0549	-0.173	-0.0223	inactive
